Results are given in words; binding and its absence hold for the method and conditions named. In cells and extracts the contact can be indirect. Some binding calls cover weakened binding; strength is not graded here. Where a sequence is shown, tags or fusion partners need not be part of it.
Target: Nuclear factor-kappaB p65 (rat (endogenous in primary rat chondrocytes)) (UniProt Q7TQN4)
Assay: co-IP; 500 ug chondrocyte lysate (IP RIPA with protease inhibitor cocktail) incubated with anti-NF-kappaB p65 antibody and protein A/G PLUS-Agarose beads at 4°C overnight; beads washed three times with lysis buffer; SDS-PAGE

Amino acid sequences for entries named in this document (tags omitted).
UniProt Q7TQN4: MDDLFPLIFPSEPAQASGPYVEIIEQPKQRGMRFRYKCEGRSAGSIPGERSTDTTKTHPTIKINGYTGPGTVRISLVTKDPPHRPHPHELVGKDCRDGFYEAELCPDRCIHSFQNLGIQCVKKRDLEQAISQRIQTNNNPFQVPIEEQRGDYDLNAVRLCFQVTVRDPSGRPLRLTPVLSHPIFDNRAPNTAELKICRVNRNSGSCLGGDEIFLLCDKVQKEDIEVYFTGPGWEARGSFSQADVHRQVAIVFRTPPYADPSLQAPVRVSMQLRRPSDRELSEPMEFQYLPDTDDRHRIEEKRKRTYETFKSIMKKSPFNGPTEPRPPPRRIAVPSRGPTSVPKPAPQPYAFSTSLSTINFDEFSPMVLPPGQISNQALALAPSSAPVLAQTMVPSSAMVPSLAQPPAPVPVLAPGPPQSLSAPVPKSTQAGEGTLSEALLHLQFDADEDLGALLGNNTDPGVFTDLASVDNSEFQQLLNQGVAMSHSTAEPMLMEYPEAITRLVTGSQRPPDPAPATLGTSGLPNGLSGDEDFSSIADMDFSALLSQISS

B1: Histone deacetylase 3 (protein, UniProt Q6P6W3 1-428)
chain: MAKTVAYFYDPDVGNFHYGAGHPMKPHRLALTHSLVLHYGLYKKMIVFKPYQASQHDMCRFHSEDYIDFLQRVSPTNMQGFTKSLNAFNVGDDCPVFPGLFEFCSRYTGASLQGATQLNNKICDIAINWAGGLHHAKKFEASGFCYVNDIVIGILELLKYHPRVLYIDIDIHHGDGVQEAFYLTDRVMTVSFHKYGNYFFPGTGDMYEVGAESGRYYCLNVPLRDGIDDQSYKHLFQPVISQVVDFYQPTCIVLQCGADSLGCDRLGCFNLSIRGHGECVEYVKSFNIPLLVLGGGGYTVRNVARCWTYETSLLVEEAISEELPYSEYFEYFAPDFTLHPDVSTRIENQNSRQYLDQIRQTIFENLKMLNHAPSVQIHDVPADLLTYDRTDEADAEERGPEENYSRPEAPNEFYDGDHDNDKESDVEI
- binding: binds
